Values from PubChem BioAssay AID686937 (Drosophila RNAi Screening Center, 2013).
Test: 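Knock-downs that reduce output of a secreted reporter enzyme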 (primary screen). System: Drosophila S2 cells expressing secreted horseradish peroxidase. Knock-down reagent: long dsRNA against Drosophila genes. Duration: about 5.5 days (5 days dsRNA, then 12 h reporter induction). Treatment: reporter expression induced after 5 days of dsRNA, read 12 h later; inducer not stated. Measured: 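After 5 days of dsRNA and 12 h of reporter induction, medium peroxidase read by chemiluminescence and scored as per-plate z-score; higher values mean more reporter released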. Direction: z-score: higher = more reporter secreted into medium.
In all, the deposit lists about 23,000 reagents; shown is a random part of those with a known target gene and a result. 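Reduced-secretion tags in replicate 1 do not always agree with the z-scores; no criterion for assigning the tags was given.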 Reagents against one gene are numbered here. Names joined by + are all predicted targets of the reagent. Not all columns of the deposit are shown. Not stated in the record: the amount of reagent.

no.	predicted target	reagent no.	z-score, replicate 1	z-score, replicate 2	z-score, replicate 3
1	Hand	1	-0.08	0.14	
2	Gpat4	1	-0.24	-0.41	
3	Glt	1	0.24	0.39	
4	CG32639	1	0.49	0.84	
5	Ip259	1	-0.08	-0.57	
6	LpR1	1	0.39	0.25	
7	LpR1	2	0.26	0	
8	LpR1	3	0.41	0.47	
9	ND-39	1	0.14	-0.06	
10	Rpn9	1	0.05	0.49	
11	CG31673	1	0.12	-0.31	
12	Smyd4-3	1	0.32	0.36	
13	CG31740	1	0.33	0.04	
14	CG15478	1	0.09	0.31	
15	Mesh1	1	0.48	0.34	
16	spin	1	-1.46	0.24	0.31
17	spin	2	0.11	0.11	
18	dop	1	0.36	0.4	
19	Idua	1	0.17	0.32	
20	CG5171	1	0.15	0.36	
21	Gem4b + Gem4c + Glos	1	0.44	0.25	
22	raw	1	0.27	-0.05	
23	raw	2	-0.06	0.41	
24	emc	1	-0.96	-0.3	
25	Sems	1	0.34	0.5	
26	X11Lbeta	1	0.28	0.64	
27	X11Lbeta	2	0.38	0.59	
28	Ag5r	1	0.36	0.43	
29	CG15219	1	-0.19	0.11	
30	zpg	1	0.35	0.34	
31	PolG1	1	0.63	0.25	
32	spel1	1	0	0.36	
33	CG13502	1	0	0.01	
34	CG12096	1	-0.15	-0.07	
35	bmm	1	0.27	0.34	
36	Jhbp16	1	0.37	0.46	
37	Eno	1	-8.89	-0.23	
38	Gr58a	1	-0.02	0.51	
39	CG15312	1	0.19	0.27	
40	CG3408	1	0.29	0.26	
41	Ars2	1	-0.05	0.14	
42	CG30036	1	0.56	-0.21	

Just “z-score, replicate 2” (8 entries from above):
LpR1 #3: 0.47
ND-39: -0.06
Rpn9: 0.49
CG31673: -0.31
Smyd4-3: 0.36
CG31740: 0.04
CG15478: 0.31
Mesh1: 0.34

The listing continues.
no.	predicted target	reagent no.	z-score, replicate 1	z-score, replicate 2	z-score, replicate 3
43	kuz	1	-0.23	0.01	
44	CG7203	1	0.26	0.24	
45	CG14143	1	0.62	0.36	
46	Set1	1	-0.18	-0.23	
47	Set1	2	0.1	-0.22	
48	CG18294 + 825-Oak + CG32214 + 2 more	1	0.23	0.59	
49	CG11656	1	0.12	0.28	
50	cic	1	-2.02	-0.74	
51	cic	2	-0.04	-0.56	
52	cic	3	0.3	0.22	
53	cic	4	0.32	0.13	
54	CG1344	1	0.19	0.35	
55	Sox21a	1	0.2	0.34	
56	Cpr49Ag	1	0.5	0.53	
57	Sp7	1	0.07	0.34	
58	CG10589	1	0.51	0.48	
59	Dpy-30L1	1	0.58	0.47	
60	CG31495	1	0.13	0.37	
61	Lnpk	1	0.01	0.4	
62	CG11726	1	0.52	0.44	
63	Gasp	1	0.3	0.12	
64	CG13564	1	0.13	-0.05	
65	lncRNA:bxd	1	0.02	0.25	
66	CG32712	1	0.52	0.19	
67	CG7377	1	0.3	0.31	
68	kn	1	0.41	0.4	0.17
69	kn	2	0.02	-0.29	
70	kn	3	-0.13	0.03	
71	kn	4	0.17	0.24	
72	kn	5	-0.24	-0.24	
73	pea	1	-4.53	-3.62	
74	CG32413	1	0.18	-0.29	
75	NK7.1	1	0.54	0.57	
76	CG32633	1	0.4	-0.2	
77	kat-60L1	1	0.2	0.19	
78	CG31267	1	0.24	0.55	
79	snu	1	0.29	0.51	
80	CG6567 + CG4565	1	0.16	0.65	
81	Ir25a	1	-0.19	0.14	
82	Mst36Fa	1	-0.05	-0.42	
